According to patent publication US12268747B2, “Polypeptides having anti-senescent effects and uses thereof” (OneSkin, Inc., priority 2019, dated 2025):
Not every detail of the peptide structures is certain; ends, links or a residue may be inferred. Peptide text beside a SMILES is read from it.

Assays:
[1] = test system: Human primary fibroblasts isolated from 3 healthy chronologically aged (elder) donors; test: 3-week exposure: SA-β-galactosidase senescence and proliferation; format: cell-based; conditions: 3.12 μM, 21 days; beginning at the second week
Protocol: Human primary fibroblasts isolated from 3 healthy chronologically aged (elder) donors were used. These cells were cultured in DMEM (Dulbecco's Modified Eagle's Medium) supplemented with 10% v.v. fetal bovine serum (FBS), and 1% v.v. of penicillin/streptomycin solution (1,000 U·mL−1). Cells were kept in a 5% CO2, 37° C. and 95% humidity atmosphere. After expansion, these cells were seeded in T-75 flasks (250,000 cells per flask) and, 6 hours after plating, were incubated for 3 weeks (21 days) with Peptide 14 at 3.12 μM. A negative control comprised untreated cells, which received vehicle only. Day 0 was defined as the day cells started to be treated with Peptide 14. No Peptide 14 treatment was performed between days 21 and 28. Weekly, cellular senescence was assessed according to senescence associated β-galactosidase staining levels. Data was normalized to untreated group and plotted (FIG. 4, panel A). Cellular proliferation was also determined weekly. At days 7, 14, 21, and 28, cells were trypsinized and counted (FIG. 4, panel B). After counting, 250,000 cells were plated in new T-75 flasks. Three independent experiments (biological replicates) including three technical replicates were performed. Data was analyzed using T-test. Statistical significance was determined as p values equal or lower than 0.05.

[2] = test system: human primary fibroblasts isolated from 3 healthy donors, UVB exposed; test: UVB-induced senescence in fibroblasts; format: cell-based; conditions: 5 μM
Protocol: Cellular senescence may be caused by several different stimuli. In order to assess whether Peptide 14 was effective against UVB-induced and chemically-induced senescence, human primary fibroblasts isolated from 3 healthy donors were used. These cells were cultured in DMEM (Dulbecco's Modified Eagle's Medium) supplemented with 10% v.v. fetal bovine serum (FBS), and 1% v.v. of penicillin/streptomycin solution (1,000 U·mL−1). Cells were kept in a 5% CO2, 37° C. and 95% humidity atmosphere. After expansion, these cells were seeded in 96-well plates (4,000 cells per well) and, 6 hours after plating, were submitted to either etoposide (20 μM) treatment for 24 hours, or exposed twice to 0.05 J/cm^2 of UVB radiation. […] After incubation, relative cellular senescence (assessed by the activity of senescence associated β-galactosidase staining relative to untreated control) was analyzed and plotted in column graphs. ATRX foci were also assessed following ATRX immunofluorescence staining. Graphs were built using the average ATRX foci detected per nuclei. […] Data was analyzed using with either t-test or ANOVA followed by a Bonferroni post-hoc test. Statistical significance was determined as p-values equal or lower than 0.05 (FIG. 6).

[3] = test system: human skin equivalents (fibroblasts and keratinocytes from healthy elder donors); test: Human skin equivalents: structure score and SA-B-galactosidase staining; format: cell-based; conditions: 0.01% w.v., 5 days
[4] = test system: fibroblasts, UVB exposed; test: SA-B-galactosidase staining in UVB-exposed fibroblasts (Example 8); format: cell-based, human; conditions: 48 hours after UVB 2 x 0.05 J/cm^2
Protocol: In order to shed light into the mechanism of action of Peptide 14 and similar Peptide 13, Akt S473 phosphorylation (FIG. 8, panel A), senescence associated β-galactosidase staining (FIG. 8, panel B), as well as mRNA expression (FIG. 8, panel C) were investigated. For Akt S473 phosphorylation analysis using western blotting, human primary fibroblasts and keratinocytes were used. These cells were used to build human skin equivalents, which were kept in a 5% CO2, 37° C. and 95% humidity atmosphere air liquid interface. Then, skin equivalents were treated with 1 μM of either Peptide 14 or Peptide 13 for 5 days, and protein analysis was performed on the skin equivalents. Protein was isolated and quantified. Equal amounts of protein were loaded in polyacrylamide gels and transferred into a nitrocellulose membrane. […] Relative pAkt S473/GAPDH signal was compared between treated and non-treated samples. For senescence associated B-galactosidase staining experiments, fibroblasts were used. […] Total RNA was isolated, samples were reverse transcribed, and mRNA expression of GAPDH, sirtuin 6 (SIRT6), BLM, and exonuclease 1 (EXO1) genes were determined using qPCR. […] CT values were analyzed using the 2^−ΔΔCt method. […] Data was analyzed using a T-test. Statistical significance was determined as p values equal or lower than 0.05 (FIG. 8).

[5] = test system: tyrosinase, MITF, DCT mRNA in MeWo cells; test: mRNA of melanogenesis genes in MeWo cells; format: cell-based, human; conditions: 3.12 μM with 25 μM IBMX

## CC[C@H](C)[C@H](NC(=O)CNC(=O)[C@H](CCCCN)NC(=O)[C@H](CC(C)C)NC(=O)[C@H](Cc1c[nH]c2ccccc12)NC(=O)[C@H](Cc1c[nH]cn1)NC(=O)[C@H](CCCCN)NC(=O)[C@H](C)NC(=O)[C@@H](NC(=O)[C@@H](N)CCC(=O)O)[C@@H](C)O)C(=O)O [Peptide 14, ETAKHWLKGI] (H-ETAKHWLKGI-OH; N-terminus and C-terminus assumed)
[1]
  cellular senescence (SA-β-galactosidase staining): significant decrease
[2]; 48 hours after UVB 2 x 0.05 J/cm^2
  cellular senescence (SA-β-galactosidase staining): significantly prevent cellular senescence
[2]; vs UVB treated samples without peptide
  ATRX foci/nuclei: significantly reduced
[3]
  SA-β-galactosidase staining: significant decrease
[3]; untreated 19.0±2
  skin equivalent score (overall structure, maximum 28): 24±1
[4]
  SA-B-galactosidase staining in UVB-exposed samples: decreased staining
[5]
  expression of tyrosinase, MITF, and DCT genes: significant decreases
